Data: article PMC7202210

Protein sequences, listed by entry. Tags and fused reporters are not part of them.
UniProt Q6ZNE5: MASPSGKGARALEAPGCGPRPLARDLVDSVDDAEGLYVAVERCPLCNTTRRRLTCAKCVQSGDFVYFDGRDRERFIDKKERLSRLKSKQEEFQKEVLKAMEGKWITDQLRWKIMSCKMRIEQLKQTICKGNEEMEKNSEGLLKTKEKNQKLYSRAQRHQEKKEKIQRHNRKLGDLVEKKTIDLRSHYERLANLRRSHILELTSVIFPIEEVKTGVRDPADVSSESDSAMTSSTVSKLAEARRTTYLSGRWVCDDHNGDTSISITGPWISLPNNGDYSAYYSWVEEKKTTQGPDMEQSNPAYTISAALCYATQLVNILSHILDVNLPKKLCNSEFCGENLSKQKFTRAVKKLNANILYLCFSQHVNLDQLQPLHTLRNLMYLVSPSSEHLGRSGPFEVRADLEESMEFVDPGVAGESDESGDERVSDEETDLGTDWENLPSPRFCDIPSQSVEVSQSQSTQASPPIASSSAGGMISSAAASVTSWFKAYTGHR
UniProt Q9Y4K3: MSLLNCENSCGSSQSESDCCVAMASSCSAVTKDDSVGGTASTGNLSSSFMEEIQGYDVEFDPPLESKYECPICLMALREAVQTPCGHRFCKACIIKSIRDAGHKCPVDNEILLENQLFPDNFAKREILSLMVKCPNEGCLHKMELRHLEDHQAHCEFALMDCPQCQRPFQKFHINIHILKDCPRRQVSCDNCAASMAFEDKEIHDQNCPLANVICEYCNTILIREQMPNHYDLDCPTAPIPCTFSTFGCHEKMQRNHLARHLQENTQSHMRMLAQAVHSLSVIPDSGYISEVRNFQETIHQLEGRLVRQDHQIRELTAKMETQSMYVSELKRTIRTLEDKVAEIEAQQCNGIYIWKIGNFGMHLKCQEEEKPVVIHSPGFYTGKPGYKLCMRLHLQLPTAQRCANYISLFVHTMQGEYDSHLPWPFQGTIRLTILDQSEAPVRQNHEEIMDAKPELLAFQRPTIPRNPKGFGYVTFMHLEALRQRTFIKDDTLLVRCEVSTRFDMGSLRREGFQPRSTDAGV

Columns and labels:
Experiment in all cases: co-IP
[1] = biological target: GFP-CbpCT4 (Streptococcus pneumoniae TIGR4)
6Myc-Atg14 (human) = 6Myc-Atg14 (human) (UniProt Q6ZNE5)
[2] = biological target: HA-Atg14 (expressed in 293T cells) (human) (UniProt Q6ZNE5)

Row | Substance | binding [1] | binding (6Myc-Atg14 (human)) | binding [2]
1 | FLAG-TRAF6 (from UniProt Q9Y4K3 1-522) | no binding |  | 
2 | 3Myc-Atg14 (expressed in 293T cells) (from UniProt Q6ZNE5 1-492) | binds |  | 
3 | GFP-CbpCT4 (from UniProt A0A0H2UNN3) |  | binds | binds
4 | p62-3Myc (from UniProt Q13501 1-440) | binds |  | 
5 | HA-Atg14 (expressed in 293T cells) (from UniProt Q6ZNE5 1-492) | binds |  | 

Results are given in words; binding and its absence hold for the method and conditions named. In cells and extracts the contact can be indirect. A result given as binding can be weak or reduced; the word gives no strength.
